Measurements: article doi:10.1101/2021.06.15.448540
Changes are numbered by the printed parent chain. These are yes or no findings as the source states them, for the method shown. Some entries that bind do so weakly or less than the wild type.

Tests used:
Test in all cases: MST
[1] = molecular target: T1, FhuCB with FhuB S57 mutated to Ala (Escherichia coli) (UniProt P07821+P06972)
T1 sequence (chain, His-tag labeled with the red-tris-NTA 2nd generation dye (in the MST)) 1: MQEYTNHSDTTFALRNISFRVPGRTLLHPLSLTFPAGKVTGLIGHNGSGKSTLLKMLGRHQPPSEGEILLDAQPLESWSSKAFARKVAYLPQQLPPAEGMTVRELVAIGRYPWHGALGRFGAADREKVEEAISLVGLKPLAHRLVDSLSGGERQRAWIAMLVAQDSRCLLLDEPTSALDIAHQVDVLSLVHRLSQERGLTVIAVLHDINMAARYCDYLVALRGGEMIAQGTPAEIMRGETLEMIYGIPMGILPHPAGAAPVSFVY
T1 sequence (chain, His-tag labeled with the red-tris-NTA 2nd generation dye (in the MST)) 2: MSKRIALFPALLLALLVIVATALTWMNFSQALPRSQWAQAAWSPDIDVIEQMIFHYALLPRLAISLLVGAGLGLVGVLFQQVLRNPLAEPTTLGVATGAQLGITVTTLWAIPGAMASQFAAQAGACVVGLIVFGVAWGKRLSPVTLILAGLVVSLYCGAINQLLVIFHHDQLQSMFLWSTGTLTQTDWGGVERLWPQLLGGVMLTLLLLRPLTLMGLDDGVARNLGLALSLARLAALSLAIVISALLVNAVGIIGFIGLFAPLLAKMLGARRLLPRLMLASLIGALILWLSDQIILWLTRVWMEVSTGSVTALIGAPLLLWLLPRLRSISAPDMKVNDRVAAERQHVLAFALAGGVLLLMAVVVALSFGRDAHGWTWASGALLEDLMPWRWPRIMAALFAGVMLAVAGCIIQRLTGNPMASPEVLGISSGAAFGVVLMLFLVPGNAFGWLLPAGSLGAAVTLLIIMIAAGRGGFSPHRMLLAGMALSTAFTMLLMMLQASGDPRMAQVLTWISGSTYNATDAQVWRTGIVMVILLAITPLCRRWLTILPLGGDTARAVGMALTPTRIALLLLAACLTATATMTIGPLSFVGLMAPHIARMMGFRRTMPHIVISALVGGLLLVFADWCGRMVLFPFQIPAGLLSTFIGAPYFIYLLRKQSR

[2] = molecular target: T2, FhuCB with FhuB E304 mutated to Ala (Escherichia coli) (UniProt P07821+P06972)
T2 sequence (chain, His-tag labeled with the red-tris-NTA 2nd generation dye (in the MST)) 1: T1 sequence (chain, His-tag labeled with the red-tris-NTA 2nd generation dye (in the MST)) 1
T2 sequence (chain, His-tag labeled with the red-tris-NTA 2nd generation dye (in the MST)) 2: T1 sequence (chain, His-tag labeled with the red-tris-NTA 2nd generation dye (in the MST)) 2 with A57S, E304A

[3] = molecular target: T3, FhuCB with FhuB S515 and Y517 mutated to Ala (Escherichia coli) (UniProt P07821+P06972)
T3 sequence (chain, His-tag labeled with the red-tris-NTA 2nd generation dye (in the MST)) 1: T1 sequence (chain, His-tag labeled with the red-tris-NTA 2nd generation dye (in the MST)) 1
T3 sequence (chain, His-tag labeled with the red-tris-NTA 2nd generation dye (in the MST)) 2: T1 sequence (chain, His-tag labeled with the red-tris-NTA 2nd generation dye (in the MST)) 2 with A57S, S515A, Y517A

Measured: binding

B1: FhuD (separately expressed periplasmic substrate-binding protein) (protein, UniProt P07822 31-296)
chain: AAIDPNRIVALEWLPVELLLALGIVPYGVADTINYRLWVSEPPLPDSVIDVGLRTEPNLELLTEMKPSFMVWSAGYGPSPEMLARIAPGRGFNFSDGKQPLAMARKSLTEMADLLNLQSAAETHLAQYEDFIRSMKPRFVKRGARPLLLTTLIDPRHMLVFGPNSLFQEILDEYGIPNAWQGETNFWGSTAVSIDRLAAYKDVDVLCFDHDNSKDMDALMATPLWQAMPFVRAGRFQRVPAVWFYGATLSAMHFVRVLDNAIGGKA
binds: all assays above
